# Test results reported in patent EP0316690A2, “Agent for the treatment of ischemic heart diseases” (Dr. Karl Thomae GmbH, priority 1987, dated 1989).
# System: glattmuskuläre coronare Muscarinrezeptoren
# Test: Isolated perfused Langendorff heart: antagonism of the carbachol effect on coronary flow (CF)
# Set-up: species or system Wistar Ratten
# Description: Diese günstigen Eigenschaften der Verbindungen I und II werden experimentell am Standardmodell der isoliert perfundierten Langendorff-Herzen überprüft. Meßparameter sind Herzfrequenz und Coronarfluß.
# Männliche Wistar Ratten mit einem Körpergewicht zwischen 300 und 350 g wurden mit Pentobarbital (70 mg/kg i.p.) anaesthe siert. […] Die Herzen wurden über die Aorta mit Krebs-Henseleit-Puffer (KHB) retograd bei einem konstanten Druck von 70 mm Hg perfundiert. Die Zusammensetzung des KHB betrug in mM: Kochsalz 114, Kaliumchlorid 4,7, Natriumbicarbonat 23,6, Kaliumdihydrogenphosphat 1,2, Magnesiumsulfat 1,1, Calziumchlorid 2,5. 11 mM Glucose wurden als Substrat beigefügt. Die Herzfrequenz (HR) wurde durch einen Tachographen (IFD, Mülheim) gemessen, der Coronarfluß (CF) wurde mittels eines elektromagnetischen Flowmeters (IFD, Mülheim) in Verbindung mit einer Sonde in dem zuführenden Teil der Aorta bestimmt.
# Nach einer 15-minütigen Stabilisierungsphase in allen Experimenten wurde die erste Dosis-Wirkungs-Kurve erstellt. Dies geschah durch die Gabe von dem Fluß angepaßten Bolus-Injektionen (0,01 ml/10 ml CF) mit ansteigenden Dosierungen von Carbachol (10⁻⁶ bis 10⁻²M). […] Darauffolgend gab man eine höhere Dosis des Antagonisten zu und es wurde der Einfluß von Carbachol auf den Coronarfluß (CF) und die Herzfrequenz (HF) erneut durch die Aufnahme von Dosis-Wirkungs-Kurven quantifiziert.
compound,measurement,value
"CN1C2CCC1CC(OC(=O)C(CO)c1ccccc1)C2 (racemic) [Atropin, reference compound]",Coronarselektivität (Affinität für coronare vs. frequenzbeeinflussende M-Rezeptoren),fehlt
